Laboratory results: publication PMC11687654
No constants are given. Whether binding was seen depends on the method and setting. Binding seen in cells or lysates may run through a third protein. Some binding calls cover weakened binding; strength is not graded here.

By UniProt entry, the sequences of proteins in these tests, tags left out.
UniProt Q921F2: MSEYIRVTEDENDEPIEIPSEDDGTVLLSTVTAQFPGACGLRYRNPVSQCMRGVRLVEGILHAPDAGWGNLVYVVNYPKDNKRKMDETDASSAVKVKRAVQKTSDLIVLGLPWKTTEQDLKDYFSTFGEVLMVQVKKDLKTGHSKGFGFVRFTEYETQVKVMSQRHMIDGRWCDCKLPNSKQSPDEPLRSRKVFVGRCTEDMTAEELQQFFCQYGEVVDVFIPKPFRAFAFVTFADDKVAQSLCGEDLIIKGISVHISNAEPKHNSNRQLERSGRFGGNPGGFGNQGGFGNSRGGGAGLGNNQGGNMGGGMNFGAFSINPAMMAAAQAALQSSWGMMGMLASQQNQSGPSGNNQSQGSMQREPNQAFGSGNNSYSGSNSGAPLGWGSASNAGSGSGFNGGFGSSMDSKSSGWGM
UniProt Q13148: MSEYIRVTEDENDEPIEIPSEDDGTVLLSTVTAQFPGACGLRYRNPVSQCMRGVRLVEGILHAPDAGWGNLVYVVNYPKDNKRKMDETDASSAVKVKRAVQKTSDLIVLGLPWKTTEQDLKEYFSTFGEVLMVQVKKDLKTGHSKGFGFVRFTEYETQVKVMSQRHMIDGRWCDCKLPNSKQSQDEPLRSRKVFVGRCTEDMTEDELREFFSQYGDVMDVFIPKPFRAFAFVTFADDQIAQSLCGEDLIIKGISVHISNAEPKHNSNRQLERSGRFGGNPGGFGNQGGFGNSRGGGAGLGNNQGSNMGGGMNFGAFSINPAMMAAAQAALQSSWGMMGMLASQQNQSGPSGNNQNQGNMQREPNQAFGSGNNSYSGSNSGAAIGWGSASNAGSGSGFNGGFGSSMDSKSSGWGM

Target: T1, Ataxin-2 (mouse brain) (mouse (endogenous in brain cortex)) (UniProt O70305)
T1 sequence: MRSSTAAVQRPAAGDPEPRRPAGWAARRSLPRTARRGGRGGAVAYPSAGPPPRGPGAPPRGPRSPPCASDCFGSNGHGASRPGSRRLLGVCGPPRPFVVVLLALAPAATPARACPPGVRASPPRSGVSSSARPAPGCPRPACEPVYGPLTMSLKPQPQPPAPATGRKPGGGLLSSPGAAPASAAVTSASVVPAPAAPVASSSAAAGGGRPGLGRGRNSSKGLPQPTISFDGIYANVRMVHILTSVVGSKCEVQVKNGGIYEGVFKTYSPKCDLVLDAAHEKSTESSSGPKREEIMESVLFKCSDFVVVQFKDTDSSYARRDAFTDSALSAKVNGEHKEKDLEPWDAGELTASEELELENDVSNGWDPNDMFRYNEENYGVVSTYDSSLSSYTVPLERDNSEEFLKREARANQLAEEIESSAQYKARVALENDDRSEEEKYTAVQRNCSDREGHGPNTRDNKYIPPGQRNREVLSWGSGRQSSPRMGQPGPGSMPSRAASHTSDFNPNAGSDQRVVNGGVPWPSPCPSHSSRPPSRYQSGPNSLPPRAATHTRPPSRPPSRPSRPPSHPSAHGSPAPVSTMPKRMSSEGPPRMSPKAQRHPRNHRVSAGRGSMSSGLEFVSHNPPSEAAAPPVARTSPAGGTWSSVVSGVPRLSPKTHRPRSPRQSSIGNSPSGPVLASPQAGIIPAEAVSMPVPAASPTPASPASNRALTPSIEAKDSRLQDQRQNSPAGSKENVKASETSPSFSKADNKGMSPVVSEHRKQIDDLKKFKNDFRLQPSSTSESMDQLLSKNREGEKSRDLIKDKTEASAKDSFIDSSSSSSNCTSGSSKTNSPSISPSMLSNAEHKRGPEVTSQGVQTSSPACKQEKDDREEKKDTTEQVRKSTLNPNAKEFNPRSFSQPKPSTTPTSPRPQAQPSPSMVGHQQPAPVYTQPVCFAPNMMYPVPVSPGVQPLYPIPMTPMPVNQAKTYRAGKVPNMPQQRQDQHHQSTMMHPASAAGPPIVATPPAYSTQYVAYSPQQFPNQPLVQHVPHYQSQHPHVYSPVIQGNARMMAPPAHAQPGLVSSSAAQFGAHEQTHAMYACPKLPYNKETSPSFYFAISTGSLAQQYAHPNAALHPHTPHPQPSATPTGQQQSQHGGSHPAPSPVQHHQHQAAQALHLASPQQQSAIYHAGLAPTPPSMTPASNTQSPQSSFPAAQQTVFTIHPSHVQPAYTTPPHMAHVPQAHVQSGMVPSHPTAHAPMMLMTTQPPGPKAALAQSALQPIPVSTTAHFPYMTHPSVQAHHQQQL
Test: co-IP; brain cortex lysates of WT or Tar6/Tar6 mice (6 months old); anti-Ataxin-2 antibody (or IgG) on Protein A Dynabeads, overnight at 4°C; IP lysis buffer; Western blot with Ataxin-2 and TDP-43 antibodies

## TDP-43 (WT mouse brain) (from UniProt Q921F2 1-414)
  binding: binds

## human wild-type TDP-43 of the Tar6/Tar6 transgenic mouse (from UniProt Q13148 1-414)
  binding: binds
